Our source for the binding values is PMC4150058.

Sequences of proteins named here, by UniProt entry; tags and fusion partners are left off.
UniProt Q8N668: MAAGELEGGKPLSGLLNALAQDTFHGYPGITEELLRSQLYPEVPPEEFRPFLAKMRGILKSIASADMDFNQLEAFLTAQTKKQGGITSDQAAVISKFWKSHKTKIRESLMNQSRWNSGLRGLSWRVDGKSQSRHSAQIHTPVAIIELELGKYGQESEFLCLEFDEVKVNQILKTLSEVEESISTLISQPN
UniProt Q09472: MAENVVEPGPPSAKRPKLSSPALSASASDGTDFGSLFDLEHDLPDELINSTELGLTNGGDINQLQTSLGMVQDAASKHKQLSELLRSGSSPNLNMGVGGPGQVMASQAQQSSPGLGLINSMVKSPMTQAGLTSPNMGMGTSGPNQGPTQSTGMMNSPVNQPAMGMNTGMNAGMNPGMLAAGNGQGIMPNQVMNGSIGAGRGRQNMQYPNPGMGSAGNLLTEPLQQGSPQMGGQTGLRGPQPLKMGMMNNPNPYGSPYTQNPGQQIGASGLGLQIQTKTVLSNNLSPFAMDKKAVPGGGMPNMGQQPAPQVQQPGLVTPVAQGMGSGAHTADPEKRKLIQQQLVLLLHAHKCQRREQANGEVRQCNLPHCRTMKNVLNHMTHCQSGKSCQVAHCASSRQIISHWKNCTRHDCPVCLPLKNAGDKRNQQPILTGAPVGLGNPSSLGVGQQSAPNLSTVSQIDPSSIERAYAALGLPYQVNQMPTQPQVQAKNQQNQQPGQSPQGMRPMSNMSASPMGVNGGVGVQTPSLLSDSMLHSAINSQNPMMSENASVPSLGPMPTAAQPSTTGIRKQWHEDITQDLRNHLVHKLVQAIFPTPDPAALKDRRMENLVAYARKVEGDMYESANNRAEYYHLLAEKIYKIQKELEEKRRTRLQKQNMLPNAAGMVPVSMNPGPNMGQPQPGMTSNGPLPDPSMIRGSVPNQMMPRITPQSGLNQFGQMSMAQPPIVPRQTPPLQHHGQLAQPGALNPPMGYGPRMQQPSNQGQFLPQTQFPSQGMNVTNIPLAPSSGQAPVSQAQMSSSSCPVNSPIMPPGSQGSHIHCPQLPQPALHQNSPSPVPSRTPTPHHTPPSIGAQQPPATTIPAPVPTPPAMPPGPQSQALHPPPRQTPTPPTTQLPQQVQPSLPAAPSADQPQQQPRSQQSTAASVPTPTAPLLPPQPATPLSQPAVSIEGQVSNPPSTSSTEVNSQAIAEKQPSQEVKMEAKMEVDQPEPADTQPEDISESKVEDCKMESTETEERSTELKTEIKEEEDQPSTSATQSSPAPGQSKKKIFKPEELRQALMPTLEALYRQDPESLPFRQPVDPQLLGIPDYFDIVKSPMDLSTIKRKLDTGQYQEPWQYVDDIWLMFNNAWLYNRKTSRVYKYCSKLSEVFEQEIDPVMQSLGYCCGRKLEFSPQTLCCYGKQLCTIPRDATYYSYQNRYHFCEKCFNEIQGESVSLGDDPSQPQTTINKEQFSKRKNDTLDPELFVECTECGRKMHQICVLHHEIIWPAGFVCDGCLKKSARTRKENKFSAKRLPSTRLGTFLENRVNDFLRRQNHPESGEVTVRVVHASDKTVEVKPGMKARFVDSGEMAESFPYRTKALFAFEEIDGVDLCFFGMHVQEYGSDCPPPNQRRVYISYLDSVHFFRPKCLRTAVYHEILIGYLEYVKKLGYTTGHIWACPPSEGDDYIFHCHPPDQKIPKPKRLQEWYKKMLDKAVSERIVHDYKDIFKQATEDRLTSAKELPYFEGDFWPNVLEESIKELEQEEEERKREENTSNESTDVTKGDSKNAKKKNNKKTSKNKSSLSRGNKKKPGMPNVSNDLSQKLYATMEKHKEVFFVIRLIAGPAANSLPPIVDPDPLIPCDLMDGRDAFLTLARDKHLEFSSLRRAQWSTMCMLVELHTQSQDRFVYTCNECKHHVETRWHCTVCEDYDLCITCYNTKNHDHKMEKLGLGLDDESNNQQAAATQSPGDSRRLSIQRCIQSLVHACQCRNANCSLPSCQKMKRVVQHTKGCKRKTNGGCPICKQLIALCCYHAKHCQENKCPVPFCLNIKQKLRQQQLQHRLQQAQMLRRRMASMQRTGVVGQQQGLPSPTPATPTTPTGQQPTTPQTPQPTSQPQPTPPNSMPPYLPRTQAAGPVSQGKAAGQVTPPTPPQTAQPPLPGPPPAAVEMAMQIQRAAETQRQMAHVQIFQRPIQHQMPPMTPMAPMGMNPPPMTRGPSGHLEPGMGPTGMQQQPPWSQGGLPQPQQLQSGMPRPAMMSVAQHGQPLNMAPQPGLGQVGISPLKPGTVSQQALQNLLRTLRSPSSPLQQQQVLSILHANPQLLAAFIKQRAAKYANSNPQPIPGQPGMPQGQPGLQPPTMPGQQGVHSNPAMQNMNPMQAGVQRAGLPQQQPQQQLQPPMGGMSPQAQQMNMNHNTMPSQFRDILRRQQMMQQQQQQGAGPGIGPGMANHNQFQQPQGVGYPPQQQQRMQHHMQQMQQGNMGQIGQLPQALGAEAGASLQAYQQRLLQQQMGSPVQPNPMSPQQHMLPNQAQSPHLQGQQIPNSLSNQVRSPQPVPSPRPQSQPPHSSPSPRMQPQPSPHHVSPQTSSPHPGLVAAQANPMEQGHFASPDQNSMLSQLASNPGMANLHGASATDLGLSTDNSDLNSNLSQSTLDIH

In the experiment the target is GST–COMMD1 (UniProt Q8N668). The experiment in a line: pull-down; SW480 cells transfected with GST–COMMD1 (alone or with control or XIAP siRNA), treated with aspirin (10 mM, indicated times) or TNF (10 ng/µl, 2 h); GST-tagged protein isolated from whole-cell lysates on glutathione–agarose; western blot for p300 or RelA.

These are yes or no findings as the source states them, for the method shown. In cells and extracts the contact can be indirect. Some entries that bind do so weakly or less than the wild type.

In the case of “p300 (from UniProt Q09472 1-2414) (enzyme)”, the binding entry is listed as “binds”.
